Measurements: the supplement of paper PMC10849652
This is one part of the list.

By UniProt entry, the sequences of proteins in these tests, tags left out. Where a name states a change or a piece, a line headed by the entry shows the natural chain unless it says otherwise.
UniProt Q96QE3: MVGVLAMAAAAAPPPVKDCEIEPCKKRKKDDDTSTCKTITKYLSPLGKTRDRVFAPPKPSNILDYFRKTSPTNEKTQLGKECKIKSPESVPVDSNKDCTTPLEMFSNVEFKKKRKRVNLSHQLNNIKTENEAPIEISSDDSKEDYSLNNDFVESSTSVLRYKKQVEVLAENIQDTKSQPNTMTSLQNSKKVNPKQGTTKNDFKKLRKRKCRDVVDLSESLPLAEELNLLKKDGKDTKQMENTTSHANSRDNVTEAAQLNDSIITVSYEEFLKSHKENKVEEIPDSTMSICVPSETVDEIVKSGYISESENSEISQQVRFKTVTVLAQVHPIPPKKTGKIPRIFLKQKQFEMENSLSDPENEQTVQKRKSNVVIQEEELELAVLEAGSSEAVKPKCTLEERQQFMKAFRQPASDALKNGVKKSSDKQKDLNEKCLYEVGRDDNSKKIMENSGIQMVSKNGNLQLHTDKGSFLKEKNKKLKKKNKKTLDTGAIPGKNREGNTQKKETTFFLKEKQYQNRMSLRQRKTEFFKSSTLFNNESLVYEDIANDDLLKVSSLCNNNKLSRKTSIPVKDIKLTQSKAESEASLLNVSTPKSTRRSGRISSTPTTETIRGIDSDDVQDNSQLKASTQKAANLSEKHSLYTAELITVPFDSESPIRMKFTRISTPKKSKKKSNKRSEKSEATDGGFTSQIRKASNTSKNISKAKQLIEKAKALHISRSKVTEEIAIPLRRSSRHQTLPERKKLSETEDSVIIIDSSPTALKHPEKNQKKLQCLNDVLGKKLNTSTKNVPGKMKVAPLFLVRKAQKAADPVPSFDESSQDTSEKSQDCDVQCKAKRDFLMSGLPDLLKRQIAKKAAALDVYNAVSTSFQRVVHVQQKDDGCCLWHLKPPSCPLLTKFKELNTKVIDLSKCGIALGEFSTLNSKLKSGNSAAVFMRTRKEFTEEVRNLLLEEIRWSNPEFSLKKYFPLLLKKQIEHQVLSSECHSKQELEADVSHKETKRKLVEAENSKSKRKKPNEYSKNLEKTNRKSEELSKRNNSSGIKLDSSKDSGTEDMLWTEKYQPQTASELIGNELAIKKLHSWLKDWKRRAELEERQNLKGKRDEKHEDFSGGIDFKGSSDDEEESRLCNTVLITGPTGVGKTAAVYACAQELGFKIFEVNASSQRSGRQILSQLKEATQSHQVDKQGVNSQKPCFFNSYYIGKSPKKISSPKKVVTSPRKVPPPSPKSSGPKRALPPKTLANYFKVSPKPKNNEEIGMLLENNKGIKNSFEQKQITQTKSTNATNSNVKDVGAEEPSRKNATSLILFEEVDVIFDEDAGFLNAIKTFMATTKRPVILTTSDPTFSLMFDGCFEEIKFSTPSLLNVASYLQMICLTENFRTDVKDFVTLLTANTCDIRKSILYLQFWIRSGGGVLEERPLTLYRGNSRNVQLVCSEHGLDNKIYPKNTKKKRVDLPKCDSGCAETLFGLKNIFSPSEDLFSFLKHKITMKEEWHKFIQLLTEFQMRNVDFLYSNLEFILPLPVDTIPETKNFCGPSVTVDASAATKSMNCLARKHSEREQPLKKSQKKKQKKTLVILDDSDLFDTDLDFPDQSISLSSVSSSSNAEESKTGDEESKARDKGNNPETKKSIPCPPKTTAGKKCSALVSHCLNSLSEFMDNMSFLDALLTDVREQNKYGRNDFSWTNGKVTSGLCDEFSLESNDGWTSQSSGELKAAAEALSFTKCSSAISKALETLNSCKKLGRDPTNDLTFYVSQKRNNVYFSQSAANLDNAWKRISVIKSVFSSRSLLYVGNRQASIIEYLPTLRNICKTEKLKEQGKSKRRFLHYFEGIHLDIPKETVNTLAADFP
UniProt Q9NWL6: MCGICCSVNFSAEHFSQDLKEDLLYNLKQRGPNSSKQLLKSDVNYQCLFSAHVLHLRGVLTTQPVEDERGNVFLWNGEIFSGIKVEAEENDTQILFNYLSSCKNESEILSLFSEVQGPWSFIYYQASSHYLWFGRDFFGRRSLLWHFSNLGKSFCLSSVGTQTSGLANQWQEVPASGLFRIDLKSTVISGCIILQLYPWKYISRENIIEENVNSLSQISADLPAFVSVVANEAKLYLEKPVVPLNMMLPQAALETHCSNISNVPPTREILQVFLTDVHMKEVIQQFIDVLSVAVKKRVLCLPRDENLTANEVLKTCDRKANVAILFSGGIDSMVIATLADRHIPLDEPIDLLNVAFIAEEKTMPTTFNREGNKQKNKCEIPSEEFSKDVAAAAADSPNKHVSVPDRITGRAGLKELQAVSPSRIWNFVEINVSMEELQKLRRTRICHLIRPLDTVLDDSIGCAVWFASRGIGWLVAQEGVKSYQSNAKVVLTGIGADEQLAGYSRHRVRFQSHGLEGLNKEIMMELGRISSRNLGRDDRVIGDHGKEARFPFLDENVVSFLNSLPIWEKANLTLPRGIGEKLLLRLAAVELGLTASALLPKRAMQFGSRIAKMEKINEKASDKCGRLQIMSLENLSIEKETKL
UniProt Q9Y575: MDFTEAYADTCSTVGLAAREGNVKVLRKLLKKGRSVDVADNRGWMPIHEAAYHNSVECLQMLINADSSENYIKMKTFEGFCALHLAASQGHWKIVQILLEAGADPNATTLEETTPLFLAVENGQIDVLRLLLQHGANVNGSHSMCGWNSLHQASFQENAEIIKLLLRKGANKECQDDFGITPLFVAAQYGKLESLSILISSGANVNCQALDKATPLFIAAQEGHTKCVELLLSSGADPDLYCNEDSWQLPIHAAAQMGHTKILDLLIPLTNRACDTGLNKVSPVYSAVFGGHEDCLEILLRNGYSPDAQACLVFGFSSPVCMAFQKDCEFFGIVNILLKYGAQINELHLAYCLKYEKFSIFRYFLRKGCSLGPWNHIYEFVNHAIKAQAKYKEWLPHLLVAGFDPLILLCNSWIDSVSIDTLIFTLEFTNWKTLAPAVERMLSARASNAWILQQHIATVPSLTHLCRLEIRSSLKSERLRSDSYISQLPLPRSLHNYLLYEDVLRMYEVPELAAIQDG
UniProt Q6ZNE5, whole entry, looked up: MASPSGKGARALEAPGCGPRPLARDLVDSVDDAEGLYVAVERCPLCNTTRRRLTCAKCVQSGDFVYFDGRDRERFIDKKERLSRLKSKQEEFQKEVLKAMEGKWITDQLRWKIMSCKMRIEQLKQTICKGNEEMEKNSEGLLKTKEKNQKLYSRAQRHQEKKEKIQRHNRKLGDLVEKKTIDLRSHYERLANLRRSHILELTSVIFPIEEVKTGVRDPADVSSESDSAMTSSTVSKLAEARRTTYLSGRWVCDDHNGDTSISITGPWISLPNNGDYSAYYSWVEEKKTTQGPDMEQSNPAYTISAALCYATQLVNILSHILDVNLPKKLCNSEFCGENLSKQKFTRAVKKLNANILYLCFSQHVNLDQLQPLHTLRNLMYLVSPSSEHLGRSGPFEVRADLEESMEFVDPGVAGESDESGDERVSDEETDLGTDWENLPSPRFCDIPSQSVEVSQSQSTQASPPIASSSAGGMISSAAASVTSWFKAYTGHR
UniProt H3BUF6: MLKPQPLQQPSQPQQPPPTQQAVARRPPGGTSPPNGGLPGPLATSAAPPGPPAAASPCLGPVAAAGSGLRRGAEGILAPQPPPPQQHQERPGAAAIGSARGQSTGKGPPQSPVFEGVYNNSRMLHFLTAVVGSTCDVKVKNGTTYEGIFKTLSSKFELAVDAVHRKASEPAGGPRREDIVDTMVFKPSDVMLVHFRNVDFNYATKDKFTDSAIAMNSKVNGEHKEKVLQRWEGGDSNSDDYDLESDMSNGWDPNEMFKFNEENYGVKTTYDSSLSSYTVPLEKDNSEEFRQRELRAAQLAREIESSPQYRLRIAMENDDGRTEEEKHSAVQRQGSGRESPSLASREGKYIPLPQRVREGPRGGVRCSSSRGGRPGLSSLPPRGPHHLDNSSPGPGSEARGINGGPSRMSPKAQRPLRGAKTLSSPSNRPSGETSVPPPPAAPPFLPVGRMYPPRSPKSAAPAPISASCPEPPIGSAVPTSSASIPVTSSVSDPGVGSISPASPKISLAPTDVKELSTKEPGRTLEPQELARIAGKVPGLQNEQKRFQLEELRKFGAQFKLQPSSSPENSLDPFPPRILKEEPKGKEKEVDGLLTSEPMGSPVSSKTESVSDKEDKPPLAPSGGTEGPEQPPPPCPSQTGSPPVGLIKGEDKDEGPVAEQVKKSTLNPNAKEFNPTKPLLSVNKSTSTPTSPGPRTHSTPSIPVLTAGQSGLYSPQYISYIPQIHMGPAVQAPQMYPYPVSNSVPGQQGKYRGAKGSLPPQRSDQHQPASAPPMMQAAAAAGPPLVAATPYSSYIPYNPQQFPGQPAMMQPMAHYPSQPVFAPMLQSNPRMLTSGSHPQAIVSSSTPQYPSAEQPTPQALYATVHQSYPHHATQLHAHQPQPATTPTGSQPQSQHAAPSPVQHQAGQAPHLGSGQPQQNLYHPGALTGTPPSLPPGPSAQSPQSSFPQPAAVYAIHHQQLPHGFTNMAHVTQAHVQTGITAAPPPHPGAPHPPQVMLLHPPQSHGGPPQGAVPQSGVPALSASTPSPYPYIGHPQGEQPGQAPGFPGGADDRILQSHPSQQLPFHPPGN
UniProt Q2TAZ0: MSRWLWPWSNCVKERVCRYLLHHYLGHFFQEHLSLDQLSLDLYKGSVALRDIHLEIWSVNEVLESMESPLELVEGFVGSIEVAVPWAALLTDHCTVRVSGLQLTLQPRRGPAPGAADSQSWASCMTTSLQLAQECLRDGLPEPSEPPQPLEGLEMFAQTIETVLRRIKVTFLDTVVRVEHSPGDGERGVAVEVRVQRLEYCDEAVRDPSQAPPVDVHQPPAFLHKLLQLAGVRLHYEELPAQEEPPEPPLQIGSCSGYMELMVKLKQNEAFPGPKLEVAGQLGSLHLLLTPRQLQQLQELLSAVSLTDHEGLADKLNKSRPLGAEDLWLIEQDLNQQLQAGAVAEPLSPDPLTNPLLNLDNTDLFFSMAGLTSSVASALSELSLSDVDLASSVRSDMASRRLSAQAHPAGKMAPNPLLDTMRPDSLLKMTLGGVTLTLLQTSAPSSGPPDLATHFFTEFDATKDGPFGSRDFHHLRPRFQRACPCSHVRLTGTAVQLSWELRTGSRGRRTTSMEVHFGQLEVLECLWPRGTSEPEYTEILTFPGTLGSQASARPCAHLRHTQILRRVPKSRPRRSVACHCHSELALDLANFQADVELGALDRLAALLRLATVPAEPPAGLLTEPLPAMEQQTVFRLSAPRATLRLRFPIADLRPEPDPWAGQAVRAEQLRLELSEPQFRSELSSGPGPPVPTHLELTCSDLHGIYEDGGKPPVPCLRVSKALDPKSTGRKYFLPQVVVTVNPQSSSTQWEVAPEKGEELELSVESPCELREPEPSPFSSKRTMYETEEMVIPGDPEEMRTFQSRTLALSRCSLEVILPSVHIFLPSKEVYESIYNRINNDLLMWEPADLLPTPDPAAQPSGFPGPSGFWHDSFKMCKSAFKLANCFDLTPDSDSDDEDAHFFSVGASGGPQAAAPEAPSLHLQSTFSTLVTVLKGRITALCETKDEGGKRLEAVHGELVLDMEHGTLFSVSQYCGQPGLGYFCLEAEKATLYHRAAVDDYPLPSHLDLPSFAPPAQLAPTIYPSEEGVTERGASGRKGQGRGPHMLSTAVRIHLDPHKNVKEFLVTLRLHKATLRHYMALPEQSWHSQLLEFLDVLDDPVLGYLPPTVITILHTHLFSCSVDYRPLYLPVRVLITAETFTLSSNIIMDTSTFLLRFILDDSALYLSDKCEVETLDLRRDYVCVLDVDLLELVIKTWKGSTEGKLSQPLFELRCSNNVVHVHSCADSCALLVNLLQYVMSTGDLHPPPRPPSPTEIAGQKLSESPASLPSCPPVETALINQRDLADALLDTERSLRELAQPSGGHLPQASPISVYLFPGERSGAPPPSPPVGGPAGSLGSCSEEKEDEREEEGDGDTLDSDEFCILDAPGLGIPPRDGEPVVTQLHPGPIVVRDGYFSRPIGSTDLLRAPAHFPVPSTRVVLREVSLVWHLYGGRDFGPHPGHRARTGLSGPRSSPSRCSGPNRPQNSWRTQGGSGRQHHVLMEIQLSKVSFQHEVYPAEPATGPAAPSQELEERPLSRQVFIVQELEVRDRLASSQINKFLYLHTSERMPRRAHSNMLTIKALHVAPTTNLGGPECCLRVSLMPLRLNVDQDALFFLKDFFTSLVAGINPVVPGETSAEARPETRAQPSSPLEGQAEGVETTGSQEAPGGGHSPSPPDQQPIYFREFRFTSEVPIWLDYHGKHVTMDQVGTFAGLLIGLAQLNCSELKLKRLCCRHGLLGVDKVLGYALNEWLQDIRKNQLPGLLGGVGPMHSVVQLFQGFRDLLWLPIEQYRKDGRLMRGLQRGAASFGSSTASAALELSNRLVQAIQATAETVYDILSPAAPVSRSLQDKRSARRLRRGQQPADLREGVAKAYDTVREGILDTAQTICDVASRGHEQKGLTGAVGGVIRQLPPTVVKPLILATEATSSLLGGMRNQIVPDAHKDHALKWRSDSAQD

The targets below were run with COC(=O)N[C@@H](C)CNc1nccc(-c2cn(C(C)C)nc2-c2cc(Cl)cc(NS(C)(=O)=O)c2F)n1 [encorafenib] (assay: log2 fold change, soluble protein after heating vs DMSO (PISA); higher = thermal stabilisation; K562 lysate, 10 uM; active = over 0.2 and 3.5 SD of the protein, either way, in both replicates (recomputed)).
Outline: (§1)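 Values give the log-two fold change in thermal stability against solvent controls, from duplicates. Crude K562 extract at 1 mg/mL protein, made by dounce homogenisation in PBS pH 7.4 with 1 mM MgCl2, was treated with 10 μM compound for 30 min. After 3 min heating across 48°C-58°C, aliquots were pooled, adjusted to 0.5% NP-40 at 4°C and centrifuged at 21,000xg for 90 min. The supernatant was measured by TMTpro 16plex LC-MS/MS with channel sums equalised.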

log2 fold change, inactive:
NA (UniProt B2RBV5) 0.05, ATAD5 (UniProt Q96QE3) 0.02, AURKB isoform 5 (UniProt Q96GD4) -0.054, ASNSD1 (UniProt Q9NWL6) 0.198, B3GNTL1 (UniProt Q67FW5) -0.081, ASB3 isoform 3 (UniProt Q9Y575) 0.087, ATF6 (UniProt P18850) -0.103, ATP7B (UniProt P35670) 0.056, ATG14 (UniProt Q6ZNE5) -0.321, ATXN1L (UniProt P0C7T5) 0.181, ATPSCKMT (UniProt Q6P4H8) -0.176, ATP5F1B (UniProt F8W079) -0.129, ATRAID isoform 3 (UniProt Q6UW56) -0.008, ATXN2L (UniProt H3BUF6) 0.058, ATG4D (UniProt Q86TL0) -0.031

The targets below were run with COC(=O)[C@H](CCSC)NC(=O)C1=C(C=C(C=C1)NC[C@H](CS)N)C2=CC=CC=C2 in the same assay as above.
Outline: as §1

log2 fold change, inactive:
NA (UniProt B2RBV5) -0.049, ATAD5 (UniProt Q96QE3) -0.175, AURKB isoform 5 (UniProt Q96GD4) 0.19, ASNSD1 (UniProt Q9NWL6) 0.214, B3GNTL1 (UniProt Q67FW5) 0.078, ASB3 isoform 3 (UniProt Q9Y575) -0.195, ATF6 (UniProt P18850) -0.148, ATP7B (UniProt P35670) -0.134, ATG14 (UniProt Q6ZNE5) 0.04, ATXN1L (UniProt P0C7T5) 0.081, ATPSCKMT (UniProt Q6P4H8) 0.17, ATP5F1B (UniProt F8W079) 0.033, ATRAID isoform 3 (UniProt Q6UW56) -0.066, ATXN2L (UniProt H3BUF6) -0.115, ATG4D (UniProt Q86TL0) -0.155

What follows are targets tested with COc1cc(Nc2ncc3c(n2)-c2ccc(Cl)cc2C(c2c(F)cccc2OC)=NC3)ccc1C(=O)O [alisertib] in the same assay as above.
Outline: as §1

log2 fold change, inactive:
NA (UniProt B2RBV5) 0.046, ATAD5 (UniProt Q96QE3) 0.02, AURKB isoform 5 (UniProt Q96GD4) 0.347, ASNSD1 (UniProt Q9NWL6) -0.112, ASB3 isoform 3 (UniProt Q9Y575) 0.103, ATG2A (UniProt Q2TAZ0) -0.108, ATP5F1A (UniProt K7ENJ4) 0.01, ATP7B (UniProt P35670) 0.006, ATG14 (UniProt Q6ZNE5) 0.015, ATP5F1B (UniProt H0YI37) -0.212, ATXN1L (UniProt P0C7T5) -0.044, B3GALNT2 (UniProt Q8NCR0) -0.046, ATP5F1B (UniProt F8W079) 0.1, ATRAID isoform 3 (UniProt Q6UW56) 0.015, ATXN2L (UniProt H3BUF6) -0.022

These targets were tested with COc1cc2nc(-c3cc(F)ccc3O)nc(N[C@@H]3CNC[C@H]3C(C)(C)O)c2cc1OC in the same assay as above.
Outline: as §1

log2 fold change, inactive:
NA (UniProt B2RBV5) 0.115, B3GNTL1 (UniProt Q67FW5) -0.057, ATG2A (UniProt Q2TAZ0) 0.205, ATP5F1A (UniProt K7ENJ4) 0.005, ATP7B (UniProt P35670) -0.083, ATP5F1B (UniProt H0YI37) 0.404, B3GALNT2 (UniProt Q8NCR0) -0.163, ATE1 (UniProt O95260) 0.044, ASXL3 (UniProt Q9C0F0) 0.017, ATP1B2 (UniProt P14415) 0.006, ATP5F1B (UniProt F8W079) -0.063, ATP6V0A1 (UniProt Q93050) -0.167, ATRAID isoform 3 (UniProt Q6UW56) 0.03, ATXN2L (UniProt H3BUF6) -0.062, ASTE1 (UniProt Q2TB18) 0.044, ATP1B4 (UniProt Q9UN42) 0.03, ASB16 (UniProt Q96NS5) 0.118, ASB9 (UniProt Q96DX5) 0.14

These targets were tested with COc1cc2ncnc(Nc3ccc(F)c(Cl)c3)c2cc1OCCCN1CCOCC1 [gefitinib] in the same assay as above.
Outline: as §1

log2 fold change, inactive:
NA (UniProt B2RBV5) -0.054, ATAD5 (UniProt Q96QE3) 0.043, AURKB isoform 5 (UniProt Q96GD4) -0.044, ASNSD1 (UniProt Q9NWL6) -0.263, ASB3 isoform 3 (UniProt Q9Y575) -0.114, ATG2A (UniProt Q2TAZ0) -0.212, ATP5F1A (UniProt K7ENJ4) -0.023, ATP7B (UniProt P35670) -0.004, ATG14 (UniProt Q6ZNE5) 0.207, ATP5F1B (UniProt H0YI37) 0.292, ATXN1L (UniProt P0C7T5) 0.11, B3GALNT2 (UniProt Q8NCR0) 0.161, ATP5F1B (UniProt F8W079) -0.051, ATRAID isoform 3 (UniProt Q6UW56) 0.029, ATXN2L (UniProt H3BUF6) -0.133
